## Library screen at single concentrations

The chains behind the UniProt entries cited, without tags or fusion partners. Residues count along the entry.
UniProt A4I591, 1-473: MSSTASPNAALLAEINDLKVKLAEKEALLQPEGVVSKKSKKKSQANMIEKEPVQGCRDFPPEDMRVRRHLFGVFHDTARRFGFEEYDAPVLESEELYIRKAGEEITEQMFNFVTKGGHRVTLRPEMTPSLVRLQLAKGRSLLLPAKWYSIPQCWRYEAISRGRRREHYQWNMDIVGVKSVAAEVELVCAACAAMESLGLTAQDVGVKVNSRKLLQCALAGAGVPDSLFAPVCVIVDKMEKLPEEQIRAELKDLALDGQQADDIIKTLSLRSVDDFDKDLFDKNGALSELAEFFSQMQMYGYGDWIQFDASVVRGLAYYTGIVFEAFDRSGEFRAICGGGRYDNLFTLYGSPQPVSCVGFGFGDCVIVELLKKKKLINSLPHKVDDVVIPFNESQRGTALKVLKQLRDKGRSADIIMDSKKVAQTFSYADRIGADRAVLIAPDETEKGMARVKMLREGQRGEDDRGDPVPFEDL
UniProt P9WFT3, whole entry: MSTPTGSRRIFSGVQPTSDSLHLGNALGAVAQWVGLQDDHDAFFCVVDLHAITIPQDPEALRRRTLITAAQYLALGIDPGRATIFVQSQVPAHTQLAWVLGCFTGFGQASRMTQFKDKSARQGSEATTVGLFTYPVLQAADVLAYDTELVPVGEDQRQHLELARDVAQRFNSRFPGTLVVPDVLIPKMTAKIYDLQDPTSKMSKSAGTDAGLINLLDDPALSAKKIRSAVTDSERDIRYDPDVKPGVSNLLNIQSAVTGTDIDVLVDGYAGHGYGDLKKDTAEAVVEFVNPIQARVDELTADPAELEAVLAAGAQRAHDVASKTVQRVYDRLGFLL
UniProt P9WNZ1, whole entry: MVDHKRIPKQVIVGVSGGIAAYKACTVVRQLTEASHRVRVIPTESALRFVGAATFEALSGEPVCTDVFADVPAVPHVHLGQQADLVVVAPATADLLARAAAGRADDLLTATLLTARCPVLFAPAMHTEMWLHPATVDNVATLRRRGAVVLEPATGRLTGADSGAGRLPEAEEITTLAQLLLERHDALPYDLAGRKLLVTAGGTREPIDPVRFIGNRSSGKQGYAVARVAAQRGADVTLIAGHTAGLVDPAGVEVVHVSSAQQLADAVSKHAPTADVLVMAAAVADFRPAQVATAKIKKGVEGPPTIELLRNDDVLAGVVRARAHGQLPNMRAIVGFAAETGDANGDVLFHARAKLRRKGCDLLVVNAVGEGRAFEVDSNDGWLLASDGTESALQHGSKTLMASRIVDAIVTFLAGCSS

The values are deposited in ChEMBL (CHEMBL3988442, “University of Dundee, Small-Polar-MMV Screening Library” (2021)).

Each number is a percent effect as filed. The record does not define 0% and 100%; most values in the screen are far below 50% and negative numbers occur (in some assays of this library far below -100). The compounds are a random part of those screened. A dash means the value is not listed here; it may have been measured.

LiHisRS: 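Histidine-tRNA ligase, Leishmania infantum (UniProt A4I591). Enzyme assay of histidyl-tRNA synthetase; the read-out is not stated. Tested at 30 µM. The record gives no direction; compounds that gave an IC50 in retests scored well above the rest, so higher reads as stronger inhibition. The assay is labelled LdHisRS but filed under L. infantum. Of about 69,000 compounds tested this way, about 410 (0.6%) reached 50% or more in at least one test.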
MtTrpRS: 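Enzyme assay of tryptophanyl-tRNA synthetase; the read-out is not stated. Target: Tryptophan-tRNA ligase, Mycobacterium tuberculosis (UniProt P9WFT3). Tested at 10 µM. Higher most likely means stronger inhibition; the record gives no direction and few retests gave an IC50. Size under these conditions: about 65,000 compounds, about 64 of them at 50% or above in at least one test.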
Toxoplasma: 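Assay of Toxoplasma gondii numbers, read through their beta-galactosidase reporter with a colour substrate. Concentration: 10 µM. The record gives no direction; the compounds picked for IC50 retests had high values, so higher reads as fewer parasites. Size under these conditions: about 67,000 compounds, about 260 of them at 50% or above in at least one test.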
CoaBC: 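Enzyme assay of CoaBC with a phosphate dye (Biomol Green) read at 650 nm. Target: Coenzyme A biosynthesis protein CoaBC, Mycobacterium tuberculosis (UniProt P9WNZ1). Compounds at 30 µM. Higher reads as stronger inhibition, judged from the few compounds that gave an IC50. Most strong results did not repeat in a second test. Size under these conditions: about 67,000 compounds, about 40 of them at 50% or above in at least one test.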

| Compound | LiHisRS | MtTrpRS | Toxoplasma | CoaBC |
|---|---|---|---|---|
| `O=C1CN(C(=O)C2CCCCC2)CC(O)CN1Cc1ccc(Cl)cc1` (stereo not given) | 20.41 | - | -39.38 | 1.937 |
| `CCCNC(=O)Nc1ccc2c(c1)N(S(=O)(=O)CC)CC2` | 4.494 | 0.7337 | 7.585 | 1.564 |
| `CC(=O)N1CCN(c2ccc(Cl)nn2)C(=O)C1` | 9.655 | -2.161 | -10.32 | 0 |
| `N#CC1(c2ccccc2)CCN(C(=O)C2CCCN(C(N)=O)C2)CC1` (stereo not given) | 13.19 | 2.119 | -0.3255 | 7.195 |
| `CCN(C(=O)CN1CCCC1c1cccs1)c1ccccc1C` (stereo not given) | 22.22 | -0.4938 | -4.076 | 3.431 |
| `COc1ccc2c(c1)C(C(=O)NCCN1CCOC1=O)CC(=O)N2` (stereo not given) | 17.95 | 3.464 | 8.399 | 6.361 |
| `NC(=O)CN1CCN(CC2CC2)c2ccccc21` | 56.25 | 4.338 | -6.792 | -6.971 |
| `[H][C@@]12C[C@H](C)O[C@@]1([H])CCN(C(=O)c1ccncn1)C2` | - | - | -12.46 | - |
| `Cc1cnc(N2CCOC3(CCCN(CC(=O)N(C)C)C3)C2)nc1.O=C(O)C(F)(F)F.O=C(O)C(F)(F)F` (stereo not given) | - | - | -15.24 | - |
| `CCN1C(=O)[C@H]2CN(CC(C)C)C[C@H]2C12CCN(S(C)(=O)=O)CC2` | 9.735 | -0.8765 | - | -8.211 |
| `CCN(C1CCN(C(=O)c2cccc(Cl)c2)CC1)S(C)(=O)=O` | 2.679 | 8.005 | 1.233 | -3.968 |
| `CN(C)C(=O)c1cccc(CN2CCN(CCO)CC2)c1` | -1.818 | 15.41 | 18.99 | 2.296 |
| `O=C1CC2(CCCCN2C(=O)c2ccoc2)CN1Cc1ccccc1` (stereo not given) | 13.59 | -5.093 | -8.525 | 3.562 |
| `CCOCC(=O)N1CCOCC2(CCN(c3ncccn3)C2)C1` (stereo not given) | 12.5 | -3.176 | - | -14.32 |
| `Cc1cc(N2CCN(Cc3ccnn3C)CC2)cc(C2CCCN2)n1` (stereo not given) | 13.04 | 20.04 | - | 0.2628 |
| `Cl.Cn1ccnc1N1CCN(C(=O)Cc2ccc(F)cc2)CC1` | - | - | -3.548 | - |
| `COCCN1CCc2cc(C(=O)N(C)C)c(NCC3CC3)nc2CC1` | 9.434 | 0.6706 | - | -0.8811 |
| `COCCNC(=O)N1CCN(C(=O)Cc2ccccc2F)CC1` | 21.69 | -3.451 | -2.411 | -3.883 |
| `CC(C)NC(=O)N1CCN(S(=O)(=O)C2CC2)CC2(CNC(=O)C2)C1` (stereo not given) | 18.45 | 4.52 | -2.55 | 1.648 |
| `O=C(O)C(F)(F)F.O=C(O)C(F)(F)F.c1cnc(N2CCC3(CCN(CC4CCOCC4)CC3)C2)nc1` | - | - | 3.853 | - |
| `Cc1ccc(C2(CN3CCN(Cc4cnc(C)n4C)CC3)CC2)cc1.Cl` | - | - | 3.23 | - |
| `O=C(O)C(F)(F)F.O=C(c1ccccn1)N1CCC2(CC1)C(=O)Nc1ccccc12` | - | - | 6.107 | - |
| `Cc1cc(C(=O)N2C[C@H](CO)C[C@H](CN3CCOCC3)C2)nc(C)n1` | 9.677 | 4.868 | 0.9831 | -1.096 |
| `O=C(c1ccco1)N1C[C@H]2CN(Cc3cccc(F)c3)C(=O)[C@H]2C1` | -0.9174 | -2.674 | - | 0.6085 |
| `CCN(CC)CCC(=O)NCc1cc2n(n1)CCN(C(=O)N(C)C)C2` | 26.03 | -8.434 | 5.606 | -0.4894 |
| `CC(C)N1CCC(Cc2cnc(-c3cccc(C(=O)O)c3)cn2)C1` (stereo not given) | 8.333 | -1.756 | 0.1922 | -0.2778 |
| `Cc1nc(C(=O)N2CCCC2c2noc(C3CC3)n2)c[nH]1` (stereo not given) | 5.172 | -1.847 | 3.487 | 2.35 |
| `Cc1cnn(CC2CCCN2Cc2nnc(C(C)C)o2)c1` (stereo not given) | -1.786 | 60.53 | 1.713 | -8.772 |
| `CCOCC(=O)Nc1cccnc1-n1ccnc1C` | 19.35 | -0.08333 | 15.9 | 2.581 |
| `CSc1cccc(CN(C)C(=O)CN2CCN(c3ncccn3)CC2)c1` | 22.58 | -3.052 | - | 3.075 |
| `[H][C@@]12CS(=O)(=O)C[C@]1([H])N(C(=O)c1cnc(C)cn1)CCN2C(=O)C(C)C` | - | - | 6.789 | - |
| `CN1CCC2(CCN(CC3CC3)CC2)C1=O.O=C(O)C(F)(F)F` | - | - | 20.28 | - |
| `CCc1nc(CN2CCCN(CC(O)c3ccccc3)CC2)no1` (stereo not given) | 21.74 | -2.811 | -5.271 | 10.05 |
| `COc1ccc(NC(=O)N2CCCC2c2ccncc2)cn1` (stereo not given) | 13.22 | 1.383 | 3.243 | 1.944 |
| `CS(=O)(=O)NCC(=O)NC1(c2ccc(Cl)c(Cl)c2)CC1` | 12.07 | 0.2244 | -1.154 | 3.212 |
| `OCCN1CCc2[nH]nc(C(c3ccccc3)c3ccccc3)c2C1` | 23.94 | 1.474 | 4.603 | -23.34 |
| `COC(=O)CSc1nnc(CCNC(=O)OC(C)(C)C)o1` | -6.742 | -1.908 | 3.194 | 3.971 |
| `CCCSCC(=O)N1C[C@@H]2CC[C@H](C1)N(Cc1ccccn1)C2=O` | 6.557 | -5.365 | - | -0.4292 |
| `[H][C@@]12COC[C@]1(CNS(C)(=O)=O)CN(C(=O)N(C)C)C2` | - | - | -0.05379 | - |
| `CCNC(=O)N1CCCCC1CCO` (stereo not given) | 1.923 | -4.412 | -5.078 | 10.02 |
| `Cn1nc(Cn2cccn2)c2c1CN(Cc1ccsc1)C2` | 9.091 | -4.909 | - | -2.657 |
| `O=C1CC2(CCN(Cc3ccoc3)C2)CN1c1ccc2c(c1)OCO2` (stereo not given) | 27.45 | -2.972 | 16.46 | 1.158 |
| `Cc1cc(N(C)C)cc(C2CCN(S(=O)(=O)c3cccnc3)C2)n1` (stereo not given) | 7.194 | -4.688 | 1.45 | -3.11 |

Once more, the final 6:

| Compound | LiHisRS | MtTrpRS | Toxoplasma | CoaBC |
|---|---|---|---|---|
| `CCCSCC(=O)N1C[C@@H]2CC[C@H](C1)N(Cc1ccccn1)C2=O` | 6.557 | -5.365 | - | -0.4292 |
| `[H][C@@]12COC[C@]1(CNS(C)(=O)=O)CN(C(=O)N(C)C)C2` | - | - | -0.05379 | - |
| `CCNC(=O)N1CCCCC1CCO` (stereo not given) | 1.923 | -4.412 | -5.078 | 10.02 |
| `Cn1nc(Cn2cccn2)c2c1CN(Cc1ccsc1)C2` | 9.091 | -4.909 | - | -2.657 |
| `O=C1CC2(CCN(Cc3ccoc3)C2)CN1c1ccc2c(c1)OCO2` (stereo not given) | 27.45 | -2.972 | 16.46 | 1.158 |
| `Cc1cc(N(C)C)cc(C2CCN(S(=O)(=O)c3cccnc3)C2)n1` (stereo not given) | 7.194 | -4.688 | 1.45 | -3.11 |